Test results published in the supplement of paper PMC7661543.
Differences between knockout arms are mostly noise.

System: SKBR3
Experiment: relative cell number vs DMSO control (72 h) (% of DMSO); higher = less growth inhibition (more cells)
Method: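 QMAP-Seq: a pool of 5 breast cancer cell lines (ZR-75-1, SKBR3, HCC-38, MDA-MB-231, BT-20), each carrying 12 doxycycline-inducible Cas9 sgRNA perturbations (11 knockouts plus non-targeting sgNT), was treated with compounds for 72 h at four 10-fold doses (10 nM-10 uM or 1 nM-1 uM range). Barcodes were amplified and sequenced, and cell number was interpolated from 293T spike-in standard curves. The result is expressed as % of the median of DMSO wells. Two biological replicates.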

CC/C(=C(\c1ccc(O)cc1)c1ccc(OCCN(C)C)cc1)c1ccccc1 [4-Hydroxytamoxifen]
Settings	relative cell number
sgRNA knockout: sgATF3, 10 nM	95.93
sgRNA knockout: sgATF3, 100 nM	99.4
sgRNA knockout: sgATF3, 1000 nM	104
sgRNA knockout: sgATF3, 10000 nM	45.3
sgRNA knockout: sgATF4, 10 nM	97
sgRNA knockout: sgATF4, 100 nM	102
sgRNA knockout: sgATF4, 1000 nM	89.7
sgRNA knockout: sgATF4, 10000 nM	33.9
sgRNA knockout: sgATF6, 10 nM	119
sgRNA knockout: sgATF6, 100 nM	103
sgRNA knockout: sgATF6, 1000 nM	90
sgRNA knockout: sgATF6, 10000 nM	49.5
sgRNA knockout: sgATG7, 10 nM	121
sgRNA knockout: sgATG7, 100 nM	85.9
sgRNA knockout: sgATG7, 1000 nM	88.1
sgRNA knockout: sgATG7, 10000 nM	40.7
sgRNA knockout: sgERN1, 10 nM	126
sgRNA knockout: sgERN1, 100 nM	93.1
sgRNA knockout: sgERN1, 1000 nM	104
sgRNA knockout: sgERN1, 10000 nM	44.9
sgRNA knockout: sgHSF1, 10 nM	69.9
sgRNA knockout: sgHSF1, 100 nM	85.4
sgRNA knockout: sgHSF1, 1000 nM	90.8
sgRNA knockout: sgHSF1, 10000 nM	36.8
sgRNA knockout: sgHSF2, 10 nM	98.3
sgRNA knockout: sgHSF2, 100 nM	90.66
sgRNA knockout: sgHSF2, 1000 nM	86.7
sgRNA knockout: sgHSF2, 10000 nM	47.1
sgRNA knockout: sgKEAP1, 10 nM	98.1
sgRNA knockout: sgKEAP1, 100 nM	97.8
sgRNA knockout: sgKEAP1, 1000 nM	78.3
sgRNA knockout: sgKEAP1, 10000 nM	32.55
sgRNA knockout: sgNFE2L2, 10 nM	97.5
sgRNA knockout: sgNFE2L2, 100 nM	79.9
sgRNA knockout: sgNFE2L2, 1000 nM	96.8
sgRNA knockout: sgNFE2L2, 10000 nM	38.4
sgRNA knockout: sgSLC35F2, 10 nM	94.3
sgRNA knockout: sgSLC35F2, 100 nM	99.8
sgRNA knockout: sgSLC35F2, 1000 nM	95.6
sgRNA knockout: sgSLC35F2, 10000 nM	34.4
sgRNA knockout: sgXBP1, 10 nM	110
sgRNA knockout: sgXBP1, 100 nM	91.3
sgRNA knockout: sgXBP1, 1000 nM	104
sgRNA knockout: sgXBP1, 10000 nM	36.6

S=c1nc[nH]c2nc[nH]c12 [6-Mercaptopurine]
Settings	relative cell number
sgRNA knockout: sgATF3, 10 nM	102
sgRNA knockout: sgATF3, 100 nM	68.7
sgRNA knockout: sgATF3, 1000 nM	72.5
sgRNA knockout: sgATF3, 10000 nM	66.2
sgRNA knockout: sgATF4, 10 nM	89.8
sgRNA knockout: sgATF4, 100 nM	96.03
sgRNA knockout: sgATF4, 1000 nM	82.6
sgRNA knockout: sgATF4, 10000 nM	46.4
sgRNA knockout: sgATF6, 10 nM	106
sgRNA knockout: sgATF6, 100 nM	74.1
sgRNA knockout: sgATF6, 1000 nM	75.6
sgRNA knockout: sgATF6, 10000 nM	48.3
sgRNA knockout: sgATG7, 10 nM	82.8
sgRNA knockout: sgATG7, 100 nM	78.5
sgRNA knockout: sgATG7, 1000 nM	79.6
sgRNA knockout: sgATG7, 10000 nM	47.3
sgRNA knockout: sgERN1, 10 nM	97.1
sgRNA knockout: sgERN1, 100 nM	91.6
sgRNA knockout: sgERN1, 1000 nM	66.6
sgRNA knockout: sgERN1, 10000 nM	61.2
sgRNA knockout: sgHSF1, 10 nM	111
sgRNA knockout: sgHSF1, 100 nM	90.8
sgRNA knockout: sgHSF1, 1000 nM	86.7
sgRNA knockout: sgHSF1, 10000 nM	56.4
sgRNA knockout: sgHSF2, 10 nM	92.9
sgRNA knockout: sgHSF2, 100 nM	91.8
sgRNA knockout: sgHSF2, 1000 nM	65.5
sgRNA knockout: sgHSF2, 10000 nM	51.6
sgRNA knockout: sgKEAP1, 10 nM	95.1
sgRNA knockout: sgKEAP1, 100 nM	77.5
sgRNA knockout: sgKEAP1, 1000 nM	59.9
sgRNA knockout: sgKEAP1, 10000 nM	47.2
sgRNA knockout: sgNFE2L2, 10 nM	81.2
sgRNA knockout: sgNFE2L2, 100 nM	73
sgRNA knockout: sgNFE2L2, 1000 nM	70.5
sgRNA knockout: sgNFE2L2, 10000 nM	57.6
sgRNA knockout: sgSLC35F2, 10 nM	86.04
sgRNA knockout: sgSLC35F2, 100 nM	69.5
sgRNA knockout: sgSLC35F2, 1000 nM	63.8
sgRNA knockout: sgSLC35F2, 10000 nM	65
sgRNA knockout: sgXBP1, 10 nM	107
sgRNA knockout: sgXBP1, 100 nM	95.2
sgRNA knockout: sgXBP1, 1000 nM	65.9
sgRNA knockout: sgXBP1, 10000 nM	54.4

COc1cc(CCc2cc(NC(=O)c3ccc(N4CC(C)NC(C)C4)cc3)n[nH]2)cc(OC)c1 (configuration not stated) [AZD4547]
Settings	relative cell number
sgRNA knockout: sgATF3, 10 nM	110
sgRNA knockout: sgATF3, 100 nM	86.1
sgRNA knockout: sgATF3, 1000 nM	103.7
sgRNA knockout: sgATF3, 10000 nM	39.4
sgRNA knockout: sgATF4, 10 nM	85.1
sgRNA knockout: sgATF4, 100 nM	100
sgRNA knockout: sgATF4, 1000 nM	82.5
sgRNA knockout: sgATF4, 10000 nM	47.7
sgRNA knockout: sgATF6, 10 nM	73.4
sgRNA knockout: sgATF6, 100 nM	85.4
sgRNA knockout: sgATF6, 1000 nM	90.5
sgRNA knockout: sgATF6, 10000 nM	42.9
sgRNA knockout: sgATG7, 10 nM	85.9
sgRNA knockout: sgATG7, 100 nM	97.2
sgRNA knockout: sgATG7, 1000 nM	98
sgRNA knockout: sgATG7, 10000 nM	46.4
sgRNA knockout: sgERN1, 10 nM	84.4
sgRNA knockout: sgERN1, 100 nM	79.1
sgRNA knockout: sgERN1, 1000 nM	105
sgRNA knockout: sgERN1, 10000 nM	47.4
sgRNA knockout: sgHSF1, 10 nM	68.8
sgRNA knockout: sgHSF1, 100 nM	95.1
sgRNA knockout: sgHSF1, 1000 nM	83.4
sgRNA knockout: sgHSF1, 10000 nM	42.2
sgRNA knockout: sgHSF2, 10 nM	89.8
sgRNA knockout: sgHSF2, 100 nM	81.5
sgRNA knockout: sgHSF2, 1000 nM	89.8
sgRNA knockout: sgHSF2, 10000 nM	60.91
sgRNA knockout: sgKEAP1, 10 nM	73.7
sgRNA knockout: sgKEAP1, 100 nM	84.3
sgRNA knockout: sgKEAP1, 1000 nM	87.5
sgRNA knockout: sgKEAP1, 10000 nM	50.2
sgRNA knockout: sgNFE2L2, 10 nM	87.3
sgRNA knockout: sgNFE2L2, 100 nM	80
sgRNA knockout: sgNFE2L2, 1000 nM	99.5
sgRNA knockout: sgNFE2L2, 10000 nM	42.6
sgRNA knockout: sgSLC35F2, 10 nM	87.8
sgRNA knockout: sgSLC35F2, 100 nM	74.1
sgRNA knockout: sgSLC35F2, 1000 nM	105
sgRNA knockout: sgSLC35F2, 10000 nM	48.9
sgRNA knockout: sgXBP1, 10 nM	85.1
sgRNA knockout: sgXBP1, 100 nM	70.4
sgRNA knockout: sgXBP1, 1000 nM	95.8
sgRNA knockout: sgXBP1, 10000 nM	51.4
